Results are given in words; binding and its absence hold for the method and conditions named. Some binding calls cover weakened binding; strength is not graded here.
Molecular target: mouse mNectin-4 protein (ACRO, NE4-M52H3) (mouse) (UniProt Q8R007)
Experiment: ELISA, coated antigen

Chains of the proteins cited; added tags and fusions are not shown. Residues count along the entry.
UniProt Q8R007, residues 31-347: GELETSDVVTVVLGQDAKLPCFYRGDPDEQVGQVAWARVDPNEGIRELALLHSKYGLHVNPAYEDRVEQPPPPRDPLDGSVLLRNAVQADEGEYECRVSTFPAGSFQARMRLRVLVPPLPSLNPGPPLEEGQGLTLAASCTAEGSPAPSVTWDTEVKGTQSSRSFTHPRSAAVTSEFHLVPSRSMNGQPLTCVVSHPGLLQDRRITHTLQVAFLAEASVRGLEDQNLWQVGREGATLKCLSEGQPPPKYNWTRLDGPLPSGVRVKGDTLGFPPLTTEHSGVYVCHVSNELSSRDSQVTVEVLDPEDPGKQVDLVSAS

B1: reference antibody ASG-22 (antibody, human IgG1, kappa, V domains shown)
VH: EVQLVESGGGLVQPGGSLRLSCAASGFTFSSYNMNWVRQAPGKGLEWVSYISSSSSTIYYADSVKGRFTISRDNAKNSLSLQMNSLRDEDTAVYYCARAYYYGMDVWGQGTLVTVSS
VL: DIQMTQSPSSVSASVGDRVTITCRASQGISGWLAWYQQKPGKAPKFLIYAASTLQSGVPSRFSGSGSGTDFTLTISSLQPEDFATYYCQQANSFPPTFGGGTKVEIKR
- binding: binds

From US20260144882A1, “ANTI-NECTIN-4 ANTIBODY DRUG CONJUGATE AND USE THEREOF” (Bio-Thera Solutions, Ltd., priority 2022, published 2026)
